Results are given in words; binding and its absence hold for the method and conditions named. Binding seen in cells or lysates may run through a third protein. Some results given as binding are weak or reduced against the parent protein; the word gives no strength. For some of these results: Where a sequence is shown, tags or fusion partners need not be part of it. Blank lines part the entries; values can stand above or below the binder they belong to.
Experiments:
[1] = target: T1, Flag-SETDB2 (stably expressed in SETDB2-rescued SUM159PT cells) (human) (UniProt Q96T68); assay: co-IP; anti-FLAG M2-agarose beads on lysate of SETDB2-rescued SUM159PT cells (stable Flag-SETDB2); endogenous ΔNp63α detected by Western blot
T1 sequence: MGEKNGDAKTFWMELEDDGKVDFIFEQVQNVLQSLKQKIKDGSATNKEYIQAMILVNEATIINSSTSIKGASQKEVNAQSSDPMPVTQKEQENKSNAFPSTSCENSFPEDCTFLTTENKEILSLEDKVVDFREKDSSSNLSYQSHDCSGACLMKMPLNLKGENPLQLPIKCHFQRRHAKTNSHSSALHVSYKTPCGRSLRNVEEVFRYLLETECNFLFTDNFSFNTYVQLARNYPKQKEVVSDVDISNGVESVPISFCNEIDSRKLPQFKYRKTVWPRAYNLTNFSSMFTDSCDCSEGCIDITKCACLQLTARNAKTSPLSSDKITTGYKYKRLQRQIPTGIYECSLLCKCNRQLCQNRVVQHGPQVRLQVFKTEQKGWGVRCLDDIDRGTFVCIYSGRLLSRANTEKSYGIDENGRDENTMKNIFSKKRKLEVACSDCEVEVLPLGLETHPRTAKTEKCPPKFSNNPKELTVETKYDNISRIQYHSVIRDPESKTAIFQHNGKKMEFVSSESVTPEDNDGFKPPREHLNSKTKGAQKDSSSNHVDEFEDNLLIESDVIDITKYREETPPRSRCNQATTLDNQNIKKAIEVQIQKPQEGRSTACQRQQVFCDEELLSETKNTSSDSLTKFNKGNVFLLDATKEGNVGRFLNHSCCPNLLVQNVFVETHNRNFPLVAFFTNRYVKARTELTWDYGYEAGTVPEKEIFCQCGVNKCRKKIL

[2] = target: T2, SETDB2 (endogenous) (human (endogenous in SUM159PT and MDA-MB-231)) (UniProt Q96T68); assay: co-IP; endogenous proteins; anti-SETDB2 antibody and protein A-agarose beads, overnight at 4°C; SUM159PT and MDA-MB-231 lysates (50 mM Tris-HCl pH 7.4, 150 mM NaCl, 1 mM EDTA, 1% Triton X-100); Western blot
T2 sequence: T1 sequence

[3] = target: T3, Flag-SETDB2 (co-expressed in 293T cells) (human) (UniProt Q96T68); assay: co-IP; Flag-SETDB2 and HA-ΔNp63α co-expressed in 293T cells; co-immunoprecipitation and Western blot; which tag was precipitated is not given
T3 sequence: T1 sequence

binding [1]: binds
binding [2]: binds
B1: ΔNp63α (endogenous) (protein, UniProt Q9H3D4-2 1-586)
chain: MLYLENNAQTQFSEPQYTNLGLLNSMDQQIQNGSSSTSPYNTDHAQNSVTAPSPYAQPSSTFDALSPSPAIPSNTDYPGPHSFDVSFQQSSTAKSATWTYSTELKKLYCQIAKTCPIQIKVMTPPPQGAVIRAMPVYKKAEHVTEVVKRCPNHELSREFNEGQIAPPSHLIRVEGNSHAQYVEDPITGRQSVLVPYEPPQVGTEFTTVLYNFMCNSSCVGGMNRRPILIIVTLETRDGQVLGRRCFEARICACPGRDRKADEDSIRKQQVSDSTKNGDGTKRPFRQNTHGIQMTSIKKRRSPDDELLYLPVRGRETYEMLLKIKESLELMQYLPQHTIETYRQQQQQQHQHLLQKQTSIQSPSSYGNSSPPLNKMNSMNKLPSVSQLINPQQRNALTPTTIPDGMGANIPMMGTHMPMAGDMNGLSPTQALPPPLSMPSTSHCTPPPPYPTDCSIVSFLARLGCSSCLDYFTTQGLTTIYQIEHYSMDDLASLKIPEQFRHAIWKGILDHRQLHEFSSPSHLLRTPSSASTVSVGSSETRGERVIDAVRFTLRQTISFPPRDEWNDFNFDMDARRNKQQRIKEEGE

binding [3]: binds
B2: HA-ΔNp63α (protein, UniProt Q9H3D4-2 1-586)
chain: B1 chain

binding [2]: binds weakly
B3: ΔNp63β (endogenous) (protein, UniProt Q9H3D4-4 1-461)
chain: MLYLENNAQTQFSEPQYTNLGLLNSMDQQIQNGSSSTSPYNTDHAQNSVTAPSPYAQPSSTFDALSPSPAIPSNTDYPGPHSFDVSFQQSSTAKSATWTYSTELKKLYCQIAKTCPIQIKVMTPPPQGAVIRAMPVYKKAEHVTEVVKRCPNHELSREFNEGQIAPPSHLIRVEGNSHAQYVEDPITGRQSVLVPYEPPQVGTEFTTVLYNFMCNSSCVGGMNRRPILIIVTLETRDGQVLGRRCFEARICACPGRDRKADEDSIRKQQVSDSTKNGDGTKRPFRQNTHGIQMTSIKKRRSPDDELLYLPVRGRETYEMLLKIKESLELMQYLPQHTIETYRQQQQQQHQHLLQKQTSIQSPSSYGNSSPPLNKMNSMNKLPSVSQLINPQQRNALTPTTIPDGMGANIPMMGTHMPMAGDMNGLSPTQALPPPLSMPSTSHCTPPPPYPTDCSIVRIWQV

Source: PMC7294945
